Data from patent US20030186254A1.
Results are given in words; binding and its absence hold for the method and conditions named. In cells and extracts the contact can be indirect. Some entries that bind do so weakly or less than the wild type.

The chains behind the UniProt entries cited, without tags or fusion partners. Where a name states a change or a piece, a line headed by the entry shows the natural chain unless it says otherwise. Residues count along the entry.
UniProt O96013: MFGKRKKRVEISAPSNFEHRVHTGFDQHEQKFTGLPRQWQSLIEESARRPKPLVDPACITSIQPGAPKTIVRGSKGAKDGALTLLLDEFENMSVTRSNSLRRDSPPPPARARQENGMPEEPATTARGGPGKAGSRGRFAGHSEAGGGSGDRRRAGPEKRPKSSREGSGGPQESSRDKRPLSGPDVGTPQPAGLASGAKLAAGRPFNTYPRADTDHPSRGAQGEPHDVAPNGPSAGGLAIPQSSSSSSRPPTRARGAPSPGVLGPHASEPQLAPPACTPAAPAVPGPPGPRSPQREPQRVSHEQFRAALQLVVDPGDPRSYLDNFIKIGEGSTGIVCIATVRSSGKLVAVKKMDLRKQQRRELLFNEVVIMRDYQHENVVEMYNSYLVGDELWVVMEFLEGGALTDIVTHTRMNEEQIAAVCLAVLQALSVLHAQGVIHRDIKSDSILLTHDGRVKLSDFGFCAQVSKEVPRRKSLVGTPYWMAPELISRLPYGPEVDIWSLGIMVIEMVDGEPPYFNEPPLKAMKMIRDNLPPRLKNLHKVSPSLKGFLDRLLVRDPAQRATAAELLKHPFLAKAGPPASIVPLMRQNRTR
UniProt P60953, residues 1-188: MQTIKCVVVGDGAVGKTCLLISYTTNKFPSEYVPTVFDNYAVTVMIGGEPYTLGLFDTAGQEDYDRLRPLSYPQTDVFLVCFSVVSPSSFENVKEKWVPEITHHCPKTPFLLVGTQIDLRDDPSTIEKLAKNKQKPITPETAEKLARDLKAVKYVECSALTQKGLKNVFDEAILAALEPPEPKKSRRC

Columns and labels:
[1] = biological target: GST-PAK4 (full-length human PAK4 serine/threonine kinase, amino-terminal GST fusion) (human) (UniProt O96013); assay: co-precipitation of Cdc42, anti-Cdc42 Western blot
[2] = biological target: Cdc42 (UniProt P60953); assay: co-immunoprecipitation of PAK4 co-expressed with the small G protein in COS cells
[3] = biological target: FLAG-tagged Tip60 (60 kD Tat-interacting protein, acetyl-transferase) (human); assay: anti-FLAG immunoprecipitation from COS cells, co-precipitated GST-PAK4 by anti-GST Western blot
[4] = biological target: FLAG-tagged Tip60 (60 kD Tat-interacting protein, acetyl-transferase) (human); assay: co-immunoprecipitation of proteins expressed in COS cells

| binding [1] | Substance | binding [2] | binding [3] | binding [4] |
| --- | --- | --- | --- | --- |
| binds | Cdc42 (from UniProt P60953 1-188) | – | – | – |
| – | GST-PAK4 (full-length human PAK4 serine/threonine kinase, amino-terminal GST fusion) (from UniProt O96013 1-591) (enzyme) | binds | binds | binds |
